This is an account of results in doi:10.1101/2022.05.24.493257.

By UniProt entry, the sequences of proteins in these tests, tags left out. Where a name states a change or a piece, a line headed by the entry shows the natural chain unless it says otherwise. Chains listed by the source or under a name are the forms on record and can include a tag or linker.
NRAS-G12V re-expressed in Rasless MEFs (P01111, form named): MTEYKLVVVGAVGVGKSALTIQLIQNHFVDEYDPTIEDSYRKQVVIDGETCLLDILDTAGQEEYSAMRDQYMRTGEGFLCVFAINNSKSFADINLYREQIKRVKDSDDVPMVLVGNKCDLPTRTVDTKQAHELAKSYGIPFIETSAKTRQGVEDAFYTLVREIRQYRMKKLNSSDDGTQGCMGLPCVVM

In assay [1] the target is KRAS-G12V re-expressed in Rasless MEFs (UniProt P01116). Kind of assay: pull-down.
Assay [2] addresses NRAS-G12V re-expressed in Rasless MEFs (UniProt P01111). Kind of assay: pull-down.

No constants are given. Whether binding was seen depends on the method and setting. In cells and extracts the contact can be indirect. Some entries that bind do so weakly or less than the wild type.

As for “PKCα in Rasless MEFs (from UniProt P20444 1-672) (enzyme)”, the figures for the binding entry in assay [1] and in assay [2] were “binds” and “no binding”, respectively.
